{"sequences": {"note": "The chains behind the UniProt entries cited, without tags or fusion partners.", "UniProt Q9Y265": "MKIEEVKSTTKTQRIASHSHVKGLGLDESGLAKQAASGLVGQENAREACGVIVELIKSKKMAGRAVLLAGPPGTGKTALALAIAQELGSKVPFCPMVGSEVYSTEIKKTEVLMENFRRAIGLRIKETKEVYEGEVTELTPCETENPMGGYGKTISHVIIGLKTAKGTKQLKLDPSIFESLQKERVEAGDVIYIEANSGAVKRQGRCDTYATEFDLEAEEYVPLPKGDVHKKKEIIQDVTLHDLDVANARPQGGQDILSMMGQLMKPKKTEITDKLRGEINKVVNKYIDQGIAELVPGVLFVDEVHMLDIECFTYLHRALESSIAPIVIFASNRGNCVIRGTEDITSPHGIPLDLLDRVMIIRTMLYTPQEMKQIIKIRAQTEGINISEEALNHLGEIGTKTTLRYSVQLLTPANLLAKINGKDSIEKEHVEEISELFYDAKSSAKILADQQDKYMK"}, "source": "paper PMC7722926", "molecular_target": "T1, Flag-tagged CARM1 (coactivator-associated arginine methyltransferase 1) (UniProt Q86X55)", "T1 sequence": "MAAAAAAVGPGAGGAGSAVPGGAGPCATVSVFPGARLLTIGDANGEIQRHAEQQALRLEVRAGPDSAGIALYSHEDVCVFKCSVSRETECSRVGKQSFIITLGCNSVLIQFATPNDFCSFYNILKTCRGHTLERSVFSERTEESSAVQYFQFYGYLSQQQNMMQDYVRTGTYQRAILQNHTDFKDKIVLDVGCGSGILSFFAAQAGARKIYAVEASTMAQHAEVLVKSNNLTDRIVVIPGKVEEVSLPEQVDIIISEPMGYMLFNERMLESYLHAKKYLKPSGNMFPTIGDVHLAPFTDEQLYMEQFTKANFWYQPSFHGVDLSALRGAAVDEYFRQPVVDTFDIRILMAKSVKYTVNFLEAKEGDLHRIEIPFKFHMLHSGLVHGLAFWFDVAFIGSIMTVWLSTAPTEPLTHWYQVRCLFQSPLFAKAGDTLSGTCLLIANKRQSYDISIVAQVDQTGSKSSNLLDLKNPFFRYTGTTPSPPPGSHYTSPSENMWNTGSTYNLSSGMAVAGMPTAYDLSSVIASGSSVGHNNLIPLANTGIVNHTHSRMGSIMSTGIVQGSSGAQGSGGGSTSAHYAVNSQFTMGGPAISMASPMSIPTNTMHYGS", "experiment": "affinity purification with mass spectrometry; Flag-CARM1 from HEK293T extracts on Flag-M2 affinity gel, wash with 150 mM KCl, 0.05% Nonidet P40, elution with Flag peptide, SDS-PAGE, LC-MS/MS; glucose starvation", "note": "No constants are given. Whether binding was seen depends on the method and setting. Binding seen in cells or lysates may run through a third protein. These calls come from enrichment with a bait or labelling near it, and not all partners need be listed. Tags and fused reporters may be left off the sequences shown."}
{"substance": "Pontin chromatin-remodeling factor (endogenous, HEK293T) (from UniProt Q9Y265 1-456)", "values": [{"measurement": "binding", "value": "binds"}]}
